{"source": "patent US20170183318A1", "about": "“AMIDE COMPOUNDS, METHODS FOR PREPARATION, AND USE THEREOF AS AGENTS FOR THE TREATMENT AND PREVENTION OF DISEASES CAUSED BY RNA- AND/OR DNA-CONTAINING VIRUSES, AND CONCOMITANT DISEASES” (OBSCHESTVO S OGRANICHENNOI OTVETSTVENNOSTIYU …, priority 2014, published 2017)", "test_system": "human respiratory syncytial virus (strain A2)", "test": "Antiviral activity against RS virus in a murine model of suppressed immune system (lung edema)", "format": "in vivo", "conditions": "reference drug, 50 mg/kg, Balb/c mice, RS-virus pneumonia, M ± SD, n = 5", "experimental": "Antiviral activity of the chemical compounds against human respiratory syncytial virus (strain A2, an infectious titer of 5×10^6 TCID50/mL) was assessed in a Balb/c murine model of viral pneumonia. The virus was inoculated to animals intranasally in a volume of 50 μL under brief ether anesthesia. The immune response in animals to RS virus was suppressed by intraperitoneal administration of cyclophosphan at a dose of 100 mg/kg 5 days before infection. The studied compounds were administered according to the treatment regimen once daily at a dose of 30 mg/kg for 5 days, starting 24 hours after infection. The activity of the compounds was determined by a reduction in edema of the lung infected with respiratory syncytial virus, compared to the control, on day 5 after infection.", "note": "Where “and” joins values, the source holds several entries; their conditions need not be identical. Equal values may be shown once. The name of at least one read-out is uncertain."}
{"smiles": "NC(=O)c1ncn([C@@H]2O[C@H](CO)[C@@H](O)[C@H]2O)n1", "note": "[Ribavirin, reference compound]", "values": [{"measurement": "Degree of lung edema on day 5 after infection, score", "result": "1.85 ± 0.42 score and 1.75 ± 0.59 score and 1.75 ± 0.47 score and 1.00 ± 0.17 score and 1.24 ± 0.18 score"}]}
